Compound in this assay: CN[C@@H]1C[C@H]2O[C@@](C)([C@@H]1OC)n1c3ccccc3c3c4c(c5c6ccccc6n2c5c31)C(=O)NC4 [staurosporine]
The assay is described as follows: log2 fold change of tryptic peptide abundance, ligand vs vehicle (limited proteolysis) (log2 ratio); higher = more trypsin-susceptible (destabilized). Particulars: ligand concentration: 20 uM; sample: mouse liver crude lysate; replicate design: treated separately.

Amino acid sequences for entries named in this document (tags omitted). A change or cut given only in a name is not applied to a line headed by its entry.
UniProt Q8CBC7: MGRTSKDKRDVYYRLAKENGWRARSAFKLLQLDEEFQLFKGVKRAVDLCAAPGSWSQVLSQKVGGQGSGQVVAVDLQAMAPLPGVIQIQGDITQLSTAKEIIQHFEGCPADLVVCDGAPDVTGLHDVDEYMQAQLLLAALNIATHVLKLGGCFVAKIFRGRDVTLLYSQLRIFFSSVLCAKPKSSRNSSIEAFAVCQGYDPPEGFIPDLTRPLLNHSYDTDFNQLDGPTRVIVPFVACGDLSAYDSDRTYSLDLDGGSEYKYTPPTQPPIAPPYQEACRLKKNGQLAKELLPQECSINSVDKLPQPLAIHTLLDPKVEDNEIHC
UniProt Q8K019, whole entry: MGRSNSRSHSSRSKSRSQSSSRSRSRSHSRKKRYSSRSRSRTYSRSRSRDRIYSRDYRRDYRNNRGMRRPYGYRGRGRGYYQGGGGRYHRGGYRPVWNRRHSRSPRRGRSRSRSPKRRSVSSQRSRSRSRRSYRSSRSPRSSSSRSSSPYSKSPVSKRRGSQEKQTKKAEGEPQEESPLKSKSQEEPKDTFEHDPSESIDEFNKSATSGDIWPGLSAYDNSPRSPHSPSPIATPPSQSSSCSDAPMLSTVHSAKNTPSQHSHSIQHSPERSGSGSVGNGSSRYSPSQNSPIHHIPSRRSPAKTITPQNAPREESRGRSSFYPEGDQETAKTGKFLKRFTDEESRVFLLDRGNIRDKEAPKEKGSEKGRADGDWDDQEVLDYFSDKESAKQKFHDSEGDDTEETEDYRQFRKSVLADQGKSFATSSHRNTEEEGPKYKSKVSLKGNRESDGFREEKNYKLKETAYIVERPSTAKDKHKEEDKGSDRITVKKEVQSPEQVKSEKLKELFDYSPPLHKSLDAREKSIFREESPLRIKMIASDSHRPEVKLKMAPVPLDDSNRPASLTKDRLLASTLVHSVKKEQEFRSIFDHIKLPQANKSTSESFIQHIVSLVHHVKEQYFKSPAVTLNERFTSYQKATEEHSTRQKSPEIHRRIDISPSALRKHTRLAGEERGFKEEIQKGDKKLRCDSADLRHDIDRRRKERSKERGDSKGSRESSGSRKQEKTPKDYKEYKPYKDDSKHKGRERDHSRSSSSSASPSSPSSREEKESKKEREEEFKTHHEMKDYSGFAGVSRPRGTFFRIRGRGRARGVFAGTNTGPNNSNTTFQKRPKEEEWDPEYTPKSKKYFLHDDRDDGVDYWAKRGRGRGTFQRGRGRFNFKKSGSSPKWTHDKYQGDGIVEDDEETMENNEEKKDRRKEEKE
UniProt Q8K0L9: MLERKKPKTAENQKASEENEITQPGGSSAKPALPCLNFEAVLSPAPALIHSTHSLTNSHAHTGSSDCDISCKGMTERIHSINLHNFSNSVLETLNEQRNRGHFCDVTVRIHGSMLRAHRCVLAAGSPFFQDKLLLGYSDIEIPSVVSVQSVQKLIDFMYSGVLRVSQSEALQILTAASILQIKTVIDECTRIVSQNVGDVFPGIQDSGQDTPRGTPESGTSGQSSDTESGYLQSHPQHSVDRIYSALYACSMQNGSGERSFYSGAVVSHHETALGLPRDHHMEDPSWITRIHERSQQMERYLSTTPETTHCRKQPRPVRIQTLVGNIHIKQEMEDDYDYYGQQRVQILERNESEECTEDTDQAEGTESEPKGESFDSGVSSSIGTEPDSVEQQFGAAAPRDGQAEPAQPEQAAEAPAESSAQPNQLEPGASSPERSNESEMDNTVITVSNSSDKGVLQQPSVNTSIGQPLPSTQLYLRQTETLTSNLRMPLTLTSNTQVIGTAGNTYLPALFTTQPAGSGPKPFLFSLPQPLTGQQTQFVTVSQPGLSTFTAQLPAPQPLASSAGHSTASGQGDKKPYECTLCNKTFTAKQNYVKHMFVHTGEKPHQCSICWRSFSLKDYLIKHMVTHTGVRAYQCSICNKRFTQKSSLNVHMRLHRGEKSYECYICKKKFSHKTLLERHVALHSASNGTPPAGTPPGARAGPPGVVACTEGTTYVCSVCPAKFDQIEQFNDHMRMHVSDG
UniProt Q8CID0: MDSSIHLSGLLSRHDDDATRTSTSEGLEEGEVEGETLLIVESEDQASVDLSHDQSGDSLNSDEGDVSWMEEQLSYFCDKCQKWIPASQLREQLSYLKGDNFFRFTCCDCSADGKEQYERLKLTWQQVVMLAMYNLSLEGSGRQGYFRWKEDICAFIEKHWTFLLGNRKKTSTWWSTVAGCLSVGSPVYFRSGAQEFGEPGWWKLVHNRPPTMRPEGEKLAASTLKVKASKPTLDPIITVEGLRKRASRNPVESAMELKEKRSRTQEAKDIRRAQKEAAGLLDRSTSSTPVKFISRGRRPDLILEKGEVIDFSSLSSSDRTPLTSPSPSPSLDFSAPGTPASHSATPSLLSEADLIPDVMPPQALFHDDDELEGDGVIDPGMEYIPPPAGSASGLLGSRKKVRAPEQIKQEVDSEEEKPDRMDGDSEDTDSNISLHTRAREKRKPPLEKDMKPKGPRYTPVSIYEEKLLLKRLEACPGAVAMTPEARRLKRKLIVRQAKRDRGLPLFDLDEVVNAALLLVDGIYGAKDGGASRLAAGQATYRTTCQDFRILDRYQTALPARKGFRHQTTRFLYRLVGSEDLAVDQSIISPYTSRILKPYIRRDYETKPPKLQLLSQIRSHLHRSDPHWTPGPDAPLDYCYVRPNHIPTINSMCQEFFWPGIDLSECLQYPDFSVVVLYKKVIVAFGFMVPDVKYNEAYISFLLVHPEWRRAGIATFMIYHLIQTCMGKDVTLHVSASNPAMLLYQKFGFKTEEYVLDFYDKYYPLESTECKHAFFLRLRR
UniProt Q8CFU8: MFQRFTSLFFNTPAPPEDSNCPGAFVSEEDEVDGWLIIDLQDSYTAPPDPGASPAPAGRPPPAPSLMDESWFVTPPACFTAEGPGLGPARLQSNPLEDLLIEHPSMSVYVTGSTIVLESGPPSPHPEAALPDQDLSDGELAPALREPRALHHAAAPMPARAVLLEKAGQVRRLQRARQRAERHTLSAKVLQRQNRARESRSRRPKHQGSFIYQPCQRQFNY
UniProt Q8CFE3, whole entry: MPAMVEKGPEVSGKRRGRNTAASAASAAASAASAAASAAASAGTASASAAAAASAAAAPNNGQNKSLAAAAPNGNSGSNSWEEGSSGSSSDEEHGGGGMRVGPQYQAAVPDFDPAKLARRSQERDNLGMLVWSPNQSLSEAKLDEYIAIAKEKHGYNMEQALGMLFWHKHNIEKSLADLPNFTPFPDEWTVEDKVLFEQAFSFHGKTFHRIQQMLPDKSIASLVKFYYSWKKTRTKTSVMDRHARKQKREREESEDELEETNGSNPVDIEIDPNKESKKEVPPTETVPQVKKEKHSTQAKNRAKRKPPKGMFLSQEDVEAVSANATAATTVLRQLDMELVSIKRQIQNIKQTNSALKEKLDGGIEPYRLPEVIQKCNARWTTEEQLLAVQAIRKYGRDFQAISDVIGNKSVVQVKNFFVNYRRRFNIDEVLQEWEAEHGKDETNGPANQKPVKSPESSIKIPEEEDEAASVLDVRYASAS
UniProt Q8CCM6: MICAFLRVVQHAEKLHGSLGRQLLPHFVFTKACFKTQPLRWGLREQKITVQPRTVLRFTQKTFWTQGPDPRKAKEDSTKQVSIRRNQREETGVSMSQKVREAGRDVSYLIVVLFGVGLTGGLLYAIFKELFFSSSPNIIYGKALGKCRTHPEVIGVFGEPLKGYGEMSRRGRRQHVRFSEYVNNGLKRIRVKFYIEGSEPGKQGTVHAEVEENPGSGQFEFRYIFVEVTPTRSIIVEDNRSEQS
UniProt Q8CI15, whole entry: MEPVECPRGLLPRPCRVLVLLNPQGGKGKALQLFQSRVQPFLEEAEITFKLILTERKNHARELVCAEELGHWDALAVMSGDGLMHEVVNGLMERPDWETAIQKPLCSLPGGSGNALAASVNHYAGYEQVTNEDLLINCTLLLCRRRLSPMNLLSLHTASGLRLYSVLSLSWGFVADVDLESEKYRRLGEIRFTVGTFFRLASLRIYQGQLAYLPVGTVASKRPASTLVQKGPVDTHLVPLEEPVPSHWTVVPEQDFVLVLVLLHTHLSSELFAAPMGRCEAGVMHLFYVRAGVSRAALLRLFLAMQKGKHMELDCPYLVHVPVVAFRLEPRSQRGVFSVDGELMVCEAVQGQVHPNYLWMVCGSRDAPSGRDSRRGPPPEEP
UniProt Q8CJ67: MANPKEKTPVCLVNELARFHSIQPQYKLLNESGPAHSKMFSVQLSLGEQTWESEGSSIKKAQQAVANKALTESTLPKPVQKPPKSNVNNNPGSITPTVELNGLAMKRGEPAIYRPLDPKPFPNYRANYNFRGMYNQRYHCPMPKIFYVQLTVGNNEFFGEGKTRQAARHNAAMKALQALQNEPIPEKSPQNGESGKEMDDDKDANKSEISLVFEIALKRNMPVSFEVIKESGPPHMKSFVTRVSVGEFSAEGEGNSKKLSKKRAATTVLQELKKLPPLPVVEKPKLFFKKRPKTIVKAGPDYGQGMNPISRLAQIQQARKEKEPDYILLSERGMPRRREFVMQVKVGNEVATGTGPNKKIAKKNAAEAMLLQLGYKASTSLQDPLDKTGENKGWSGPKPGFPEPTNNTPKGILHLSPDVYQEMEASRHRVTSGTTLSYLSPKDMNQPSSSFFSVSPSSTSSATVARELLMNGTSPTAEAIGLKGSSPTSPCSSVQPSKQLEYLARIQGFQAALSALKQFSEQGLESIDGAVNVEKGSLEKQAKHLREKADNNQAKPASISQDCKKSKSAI
UniProt Q8CFH6: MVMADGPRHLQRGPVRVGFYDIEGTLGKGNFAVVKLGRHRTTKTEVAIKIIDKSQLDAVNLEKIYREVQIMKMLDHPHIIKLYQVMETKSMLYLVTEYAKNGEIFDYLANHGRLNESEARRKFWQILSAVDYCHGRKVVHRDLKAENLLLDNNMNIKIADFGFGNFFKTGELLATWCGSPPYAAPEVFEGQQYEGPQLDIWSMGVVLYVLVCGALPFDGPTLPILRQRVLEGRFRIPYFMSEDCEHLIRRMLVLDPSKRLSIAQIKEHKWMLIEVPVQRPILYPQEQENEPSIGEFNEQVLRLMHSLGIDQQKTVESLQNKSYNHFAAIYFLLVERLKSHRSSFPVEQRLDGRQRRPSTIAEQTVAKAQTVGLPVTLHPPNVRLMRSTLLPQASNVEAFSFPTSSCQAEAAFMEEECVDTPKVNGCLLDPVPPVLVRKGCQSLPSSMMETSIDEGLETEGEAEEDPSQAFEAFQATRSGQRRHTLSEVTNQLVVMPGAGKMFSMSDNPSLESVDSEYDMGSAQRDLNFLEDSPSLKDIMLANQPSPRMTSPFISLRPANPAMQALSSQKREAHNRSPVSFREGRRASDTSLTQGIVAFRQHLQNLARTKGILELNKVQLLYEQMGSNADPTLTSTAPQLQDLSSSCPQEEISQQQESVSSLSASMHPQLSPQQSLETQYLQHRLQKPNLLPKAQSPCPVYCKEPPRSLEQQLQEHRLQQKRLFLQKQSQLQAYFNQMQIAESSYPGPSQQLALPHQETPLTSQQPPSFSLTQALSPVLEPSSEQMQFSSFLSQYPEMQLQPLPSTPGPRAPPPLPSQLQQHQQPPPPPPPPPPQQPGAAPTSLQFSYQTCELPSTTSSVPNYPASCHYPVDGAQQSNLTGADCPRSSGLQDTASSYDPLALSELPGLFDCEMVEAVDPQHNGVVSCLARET
UniProt Q8CES0: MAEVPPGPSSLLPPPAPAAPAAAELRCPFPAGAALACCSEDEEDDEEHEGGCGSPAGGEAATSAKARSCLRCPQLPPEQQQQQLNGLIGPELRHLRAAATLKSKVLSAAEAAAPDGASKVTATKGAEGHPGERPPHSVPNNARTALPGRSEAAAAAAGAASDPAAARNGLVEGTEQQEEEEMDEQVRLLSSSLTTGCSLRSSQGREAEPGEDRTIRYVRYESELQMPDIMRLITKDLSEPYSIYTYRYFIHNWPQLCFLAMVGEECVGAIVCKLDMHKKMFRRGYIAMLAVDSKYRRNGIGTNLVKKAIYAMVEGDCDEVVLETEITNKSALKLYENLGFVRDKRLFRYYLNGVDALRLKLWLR
UniProt Q8CGE8: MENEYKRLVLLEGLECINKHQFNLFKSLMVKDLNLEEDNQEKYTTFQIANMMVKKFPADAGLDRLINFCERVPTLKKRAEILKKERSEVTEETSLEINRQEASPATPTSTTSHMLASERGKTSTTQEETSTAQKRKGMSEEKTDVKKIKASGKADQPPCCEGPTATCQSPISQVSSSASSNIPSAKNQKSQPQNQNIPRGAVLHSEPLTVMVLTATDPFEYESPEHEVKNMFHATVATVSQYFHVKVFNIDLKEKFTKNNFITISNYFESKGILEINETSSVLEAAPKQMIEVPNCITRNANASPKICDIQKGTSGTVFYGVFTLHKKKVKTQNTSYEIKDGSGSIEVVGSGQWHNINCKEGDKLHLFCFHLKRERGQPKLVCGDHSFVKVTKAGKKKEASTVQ
UniProt Q8JZU6: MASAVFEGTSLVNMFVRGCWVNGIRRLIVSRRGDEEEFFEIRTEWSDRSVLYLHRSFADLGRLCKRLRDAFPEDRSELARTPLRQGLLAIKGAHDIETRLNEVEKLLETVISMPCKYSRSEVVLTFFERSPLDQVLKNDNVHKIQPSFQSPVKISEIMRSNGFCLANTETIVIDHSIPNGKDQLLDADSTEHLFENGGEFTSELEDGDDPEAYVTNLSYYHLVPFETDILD

The source of these data is the supplement of paper PMC12819154, “High-throughput peptide-centric local stability assay extends protein–ligand identification to membrane proteins, tissues and bacteria” (Nature Structural & Molecular Biology, 2025).

This is one part of the list. Most entries show no effect beyond the scatter of the controls.

On to “UniProt Q8CCT4 (peptide sequence: DAQDALVPR, peptide start residue: 167)”, for which the log2 fold change turned out to be 0.423.
Take “UniProt Q8CI61 (peptide sequence: SGYGPSDGPSYGR, peptide start residue: 7)”: the log2 fold change was -0.0642.
To “UniProt Q8CI11 (peptide sequence: YTVPEYK, peptide start residue: 348)” belongs -0.151.
To “UniProt Q8CBH5 (peptide sequence: EVEIPQVER, peptide start residue: 408)” belongs -0.208; to “UniProt Q8K0S9 (peptide sequence: AFSAVVPVSK, peptide start residue: 288)”, 0.0489.
To “UniProt Q8CCP0 (peptide sequence: IHTTEFEWPK, peptide start residue: 58)” belongs 0.786; to “UniProt Q8K0D2 (peptide sequence: LKPVGGHCALESR, peptide start residue: 415)”, -0.229; to “UniProt Q8CBC7 (peptide sequence: VEDNEIHC, peptide start residue: 317)”, 0.0276.
Consider “UniProt Q8CE50 (peptide sequence: MECFNADLK, peptide start residue: 379)”, for which the log2 fold change was 0.224.
In the case of “UniProt Q8K009 (peptide sequence: HGSIIYHPSLLPR, peptide start residue: 100)”, the log2 fold change was 0.102.
To “UniProt Q8CCJ3 (peptide sequence: RLAADFQR, peptide start residue: 10)” belongs -0.438.
To “UniProt Q8K019 (peptide sequence: STSESFIQHIVSLVHHVK, peptide start residue: 598)” belongs 0.137.
On to “UniProt Q8K0L9 (peptide sequence: DHHMEDPSWITR, peptide start residue: 279)”, for which the log2 fold change was -0.0771.
To “UniProt Q8JZY2 (peptide sequence: LQSPQAVLQLGVSKEDAK, peptide start residue: 153)” belongs -0.273.
To “UniProt Q8CB27 (peptide sequence: QFTDVNR, peptide start residue: 304)” belongs -0.204; to “UniProt Q8CGN5 (peptide sequence: GLLGGVVHTVQNTLR, peptide start residue: 332)”, -0.199; to “UniProt Q8CC88 (peptide sequence: YPSENLHDAITKACLSR, peptide start residue: 671)”, -0.363.
To “UniProt Q8CBQ5 (peptide sequence: YALEKVPK, peptide start residue: 220)” belongs 0.155; to “UniProt Q8CID0 (peptide sequence: LQLLSQIR, peptide start residue: 610)”, -0.298; to “UniProt Q8CFU8 (peptide sequence: ALHHAAAPMPAR, peptide start residue: 149)”, 0.23.
In the case of “UniProt Q8CFE3 (peptide sequence: IQQMLPDK, peptide start residue: 211)”, the log2 fold change came to 0.157.
“UniProt Q8CCM6 (peptide sequence: NQREETGVSMSQK, peptide start residue: 86)”: the log2 fold change was -0.0556.
As to “UniProt Q8CI15 (peptide sequence: FTVGTFFR, peptide start residue: 192)”, the log2 fold change turned out to be 0.0788.
For the target “UniProt Q8CEC0 (peptide sequence: KELQLIPDQLR, peptide start residue: 675)”, the log2 fold change is -0.192.
To “UniProt Q8CJ67 (peptide sequence: LLNESGPAHSK, peptide start residue: 28)” belongs 0.582; to “UniProt Q8CB44 (peptide sequence: GHLEIALLEK, peptide start residue: 133)”, -0.273.
To “UniProt Q8CFH6 (peptide sequence: SSFPVEQR, peptide start residue: 342)” belongs 0.259; to “UniProt Q8CDG5 (peptide sequence: TAEGNPTGGLVGLR, peptide start residue: 621)”, 0.115.
With “UniProt Q8CFI7 (peptide sequence: LDDDGLIAPGVR, peptide start residue: 848)” the figure was 0.377.
As for “UniProt Q8CES0 (peptide sequence: VLSAAEAAAPDGASK, peptide start residue: 105)”, the log2 fold change was 0.12.
On to “UniProt Q8CGE8 (peptide sequence: LINFCERVPTLK, peptide start residue: 65)”, for which the log2 fold change was -0.196.
To “UniProt Q8CG50 (peptide sequence: RSTFLSVPHWIEDVRK, peptide start residue: 101)” belongs -0.564; to “UniProt Q8CCI5 (peptide sequence: CSICDVR, peptide start residue: 41)”, 0.275.
To “UniProt Q8JZU6 (peptide sequence: LRDAFPEDR, peptide start residue: 67)” belongs -0.617; to “UniProt Q8CG73 (peptide sequence: SSDVTSVVAPKPKPR, peptide start residue: 951)”, -0.183; to “UniProt Q8CID3 (peptide sequence: QLRPGERPAACPCSGR, peptide start residue: 34)”, 0.379.
